Our source for the binding values is PMC3264577, “RINL, Guanine Nucleotide Exchange Factor Rab5-Subfamily, Is Involved in the EphA8-Degradation Pathway with Odin” (PLoS ONE, 2012).

These are yes or no findings as the source states them, for the method shown. Binding seen in cells or lysates may run through a third protein. Some entries that bind do so weakly or less than the wild type. For part of these data: Where a sequence is shown, tags or fusion partners need not be part of it.

One assay addresses T1, FLAG-RIN2 (UniProt Q8WYP3).
T1 sequence: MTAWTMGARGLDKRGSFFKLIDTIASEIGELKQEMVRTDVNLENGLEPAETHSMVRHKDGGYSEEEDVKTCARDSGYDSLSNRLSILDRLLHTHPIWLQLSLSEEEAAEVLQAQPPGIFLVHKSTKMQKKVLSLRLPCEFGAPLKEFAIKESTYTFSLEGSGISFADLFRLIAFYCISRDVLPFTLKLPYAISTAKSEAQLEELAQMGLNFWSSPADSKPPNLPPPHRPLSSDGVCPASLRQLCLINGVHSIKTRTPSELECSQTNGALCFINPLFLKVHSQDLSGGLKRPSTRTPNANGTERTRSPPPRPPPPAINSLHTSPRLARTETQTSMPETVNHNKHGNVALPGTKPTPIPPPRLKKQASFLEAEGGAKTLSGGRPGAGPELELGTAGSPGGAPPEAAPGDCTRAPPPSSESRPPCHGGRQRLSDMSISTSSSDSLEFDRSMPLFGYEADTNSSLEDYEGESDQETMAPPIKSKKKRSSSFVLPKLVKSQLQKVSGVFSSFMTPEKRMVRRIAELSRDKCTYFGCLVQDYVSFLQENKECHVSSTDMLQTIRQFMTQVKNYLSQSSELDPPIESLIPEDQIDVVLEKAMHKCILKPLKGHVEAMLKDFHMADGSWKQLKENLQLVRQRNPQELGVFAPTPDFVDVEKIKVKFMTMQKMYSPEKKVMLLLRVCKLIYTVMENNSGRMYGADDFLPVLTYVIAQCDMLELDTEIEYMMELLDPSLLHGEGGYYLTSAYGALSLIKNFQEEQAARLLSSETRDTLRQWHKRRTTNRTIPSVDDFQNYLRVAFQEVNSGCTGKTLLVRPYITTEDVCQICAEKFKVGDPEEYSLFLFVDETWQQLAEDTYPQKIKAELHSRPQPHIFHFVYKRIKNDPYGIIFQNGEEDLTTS
Put plainly: co-IP; HEK293T co-transfected with FLAG-RIN1, RIN2, RIN3 or RINL and myc-amphiphysin II; lysates immunoprecipitated with anti-FLAG, blotted with anti-myc and anti-FLAG.

Another assay concerns the target T2, FLAG-RIN3 (UniProt Q8TB24).
T2 sequence: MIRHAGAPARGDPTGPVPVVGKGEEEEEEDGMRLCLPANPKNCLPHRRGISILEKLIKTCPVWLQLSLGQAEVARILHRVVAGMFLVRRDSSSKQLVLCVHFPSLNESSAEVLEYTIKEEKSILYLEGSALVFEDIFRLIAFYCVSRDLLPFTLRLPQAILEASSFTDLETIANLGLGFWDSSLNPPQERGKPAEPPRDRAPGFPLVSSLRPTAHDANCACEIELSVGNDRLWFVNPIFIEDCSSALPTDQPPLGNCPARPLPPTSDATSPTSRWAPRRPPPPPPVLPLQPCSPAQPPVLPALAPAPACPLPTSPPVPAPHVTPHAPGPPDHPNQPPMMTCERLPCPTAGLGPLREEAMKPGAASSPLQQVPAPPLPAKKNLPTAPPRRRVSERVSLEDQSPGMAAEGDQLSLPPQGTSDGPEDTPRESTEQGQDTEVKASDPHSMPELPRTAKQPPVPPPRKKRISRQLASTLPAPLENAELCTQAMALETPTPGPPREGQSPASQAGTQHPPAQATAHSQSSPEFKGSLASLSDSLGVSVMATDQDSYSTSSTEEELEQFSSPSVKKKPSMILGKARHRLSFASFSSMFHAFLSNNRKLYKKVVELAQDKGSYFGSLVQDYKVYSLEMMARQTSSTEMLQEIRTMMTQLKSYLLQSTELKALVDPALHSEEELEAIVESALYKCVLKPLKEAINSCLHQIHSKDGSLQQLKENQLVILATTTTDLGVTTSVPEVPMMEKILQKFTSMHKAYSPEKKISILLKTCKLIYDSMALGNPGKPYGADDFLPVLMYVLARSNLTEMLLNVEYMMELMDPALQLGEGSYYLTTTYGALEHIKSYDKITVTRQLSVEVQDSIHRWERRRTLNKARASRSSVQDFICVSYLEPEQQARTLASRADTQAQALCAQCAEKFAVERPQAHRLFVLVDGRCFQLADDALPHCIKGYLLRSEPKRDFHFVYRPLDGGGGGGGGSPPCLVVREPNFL
The description is as above.

Assay [1] has as its target T3, endogenous odin (HeLa) (human (endogenous in HeLa)) (UniProt Q92625).
T3 sequence: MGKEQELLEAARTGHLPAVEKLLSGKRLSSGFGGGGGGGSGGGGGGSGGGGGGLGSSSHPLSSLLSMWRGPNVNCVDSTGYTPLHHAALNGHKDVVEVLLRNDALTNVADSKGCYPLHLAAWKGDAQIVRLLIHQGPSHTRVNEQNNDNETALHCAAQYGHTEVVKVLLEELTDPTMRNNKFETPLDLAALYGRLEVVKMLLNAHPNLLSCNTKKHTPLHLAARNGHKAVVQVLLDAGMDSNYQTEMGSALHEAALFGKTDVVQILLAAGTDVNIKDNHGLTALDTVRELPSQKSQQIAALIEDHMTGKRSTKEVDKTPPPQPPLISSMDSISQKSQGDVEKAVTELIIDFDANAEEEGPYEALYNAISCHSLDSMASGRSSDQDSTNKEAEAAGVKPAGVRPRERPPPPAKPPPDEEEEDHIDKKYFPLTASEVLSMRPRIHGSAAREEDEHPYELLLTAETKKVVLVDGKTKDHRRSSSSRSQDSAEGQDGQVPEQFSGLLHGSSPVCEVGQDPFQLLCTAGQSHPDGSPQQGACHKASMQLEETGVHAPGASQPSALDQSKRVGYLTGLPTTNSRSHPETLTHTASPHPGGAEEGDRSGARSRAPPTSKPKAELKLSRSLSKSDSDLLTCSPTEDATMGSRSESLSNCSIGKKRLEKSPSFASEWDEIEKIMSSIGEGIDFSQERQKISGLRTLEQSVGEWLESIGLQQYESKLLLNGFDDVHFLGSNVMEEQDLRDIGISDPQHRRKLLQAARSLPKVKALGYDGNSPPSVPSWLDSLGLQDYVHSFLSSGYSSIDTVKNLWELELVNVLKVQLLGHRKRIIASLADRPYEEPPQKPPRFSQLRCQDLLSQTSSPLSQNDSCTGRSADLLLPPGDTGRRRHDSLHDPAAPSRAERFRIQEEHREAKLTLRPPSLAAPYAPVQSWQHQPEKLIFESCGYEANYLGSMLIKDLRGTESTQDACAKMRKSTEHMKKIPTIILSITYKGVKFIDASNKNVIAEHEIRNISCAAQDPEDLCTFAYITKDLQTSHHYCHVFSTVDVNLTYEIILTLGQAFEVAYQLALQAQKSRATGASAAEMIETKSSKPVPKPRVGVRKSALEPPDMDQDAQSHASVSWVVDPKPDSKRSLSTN
In words: co-IP; HeLa cell lysates immunoprecipitated with anti-odin antibody or normal rat IgG; endogenous proteins.

B1: myc-amphiphysin II (protein, UniProt O00499 1-593)
chain: MAEMGSKGVTAGKIASNVQKKLTRAQEKVLQKLGKADETKDEQFEQCVQNFNKQLTEGTRLQKDLRTYLASVKAMHEASKKLNECLQEVYEPDWPGRDEANKIAENNDLLWMDYHQKLVDQALLTMDTYLGQFPDIKSRIAKRGRKLVDYDSARHHYESLQTAKKKDEAKIAKPVSLLEKAAPQWCQGKLQAHLVAQTNLLRNQAEEELIKAQKVFEEMNVDLQEELPSLWNSRVGFYVNTFQSIAGLEENFHKEMSKLNQNLNDVLVGLEKQHGSNTFTVKAQPSDNAPAKGNKSPSPPDGSPAATPEIRVNHEPEPAGGATPGATLPKSPSQLRKGPPVPPPPKHTPSKEVKQEQILSLFEDTFVPEISVTTPSQFEAPGPFSEQASLLDLDFDPLPPVTSPVKAPTPSGQSIPWDLWEPTESPAGSLPSGEPSAAEGTFAVSWPSQTAEPGPAQPAEASEVAGGTQPAAGAQEPGETAASEAASSSLPAVVVETFPATVNGTVEGGSGAGRLDLPPGFMFKVQAQHDYTATDTDELQLKAGDVVLVIPFQNPEEQDEGWLMGVKESDWNQHKELEKCRGVFPENFTERVP
As for B1, the binding result with FLAG-RIN2 and with FLAG-RIN3 was “binds” each time.

B2: endogenous RINL (HeLa) (protein, UniProt Q6ZS11 1-566)
chain: MAQPEDKAPEVPTEGVRLVPPQVNKADRTPLGVLSTLEPLTRLQRTWGVWHVPELDTQDAEALVGLWPLGSFLVTGRDPSQALVLRSGPLPGEVNTYQIQKIPRGVSLESSNLCMPDLPHLLAFLSASRDVLPRTLLLPPPTLGPRDEHTDPVQIGRVQQDTPGKVLSIVNQLYLETHRGWGREQTPQETEPEAAQRHDPAPRNPAPHGVSWVKGPLSPEVDHPGPALASLLEEEEEDLEGKEEGREDDPEEEGPEDVLTIHVQSLVRARSSYVARQYRSLRVRIASDSGGPHGSGDPATELLQDVRHLLTDLQDHLAKDSYIRAVFGSRGPGLPKKDEDPGPALETAVCQAVLAPLKPALWTRLRTLRAPELRRLRRRQTALRAGAGPPGAQGPGPEGQSPAPALRSRIHERLAHLHAACAPRRKVALLLEVCRDVYAGLARGENQDPLGADAFLPALTEELIWSPDIGDTQLDVEFLMELLDPDELRGEAGYYLTTWFGALHHIAHYQPETDRAPRGLSSEARASLHQWHRRRTLHRKDHPRAQANLPFKEPWAEETVTGTSDN
Take B2: in assay [1], the binding entry is “binds”.
